Results are given in words; binding and its absence hold for the method and conditions named. In cells and extracts the contact can be indirect. Some binding calls cover weakened binding; strength is not graded here. Where a sequence is shown, tags or fusion partners need not be part of it.
Legend:
[1] = target: T1, HA-VE-cadherin (vascular endothelial-cadherin, CDH5), overexpressed (UniProt P33151); test: co-IP; FLAG-p120 (WT, variant or empty vector) with overexpressed HA-VE-cadherin or endogenous β-catenin, Western blot; which protein was precipitated is not told in the main text
T1 sequence: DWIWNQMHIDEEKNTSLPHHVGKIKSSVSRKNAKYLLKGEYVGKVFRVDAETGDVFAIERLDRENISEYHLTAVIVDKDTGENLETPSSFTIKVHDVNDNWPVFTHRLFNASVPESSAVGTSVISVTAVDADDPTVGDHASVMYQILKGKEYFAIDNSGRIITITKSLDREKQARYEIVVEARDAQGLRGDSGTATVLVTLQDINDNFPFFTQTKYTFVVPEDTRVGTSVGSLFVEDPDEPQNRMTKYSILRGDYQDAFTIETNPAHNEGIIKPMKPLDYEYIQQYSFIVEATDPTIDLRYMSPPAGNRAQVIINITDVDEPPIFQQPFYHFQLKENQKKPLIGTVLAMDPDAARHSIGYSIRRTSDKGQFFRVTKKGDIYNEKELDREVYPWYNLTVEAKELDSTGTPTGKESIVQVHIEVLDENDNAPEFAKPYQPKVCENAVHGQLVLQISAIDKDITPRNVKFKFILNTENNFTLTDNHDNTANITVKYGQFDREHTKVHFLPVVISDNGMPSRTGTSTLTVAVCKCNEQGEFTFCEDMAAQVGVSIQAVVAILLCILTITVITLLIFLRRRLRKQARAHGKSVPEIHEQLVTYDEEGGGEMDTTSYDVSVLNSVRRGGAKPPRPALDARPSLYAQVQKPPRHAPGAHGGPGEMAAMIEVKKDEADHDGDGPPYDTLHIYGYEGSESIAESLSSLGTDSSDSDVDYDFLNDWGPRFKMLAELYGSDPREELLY

Amino acid sequences for entries named in this document (tags omitted).
UniProt P35222: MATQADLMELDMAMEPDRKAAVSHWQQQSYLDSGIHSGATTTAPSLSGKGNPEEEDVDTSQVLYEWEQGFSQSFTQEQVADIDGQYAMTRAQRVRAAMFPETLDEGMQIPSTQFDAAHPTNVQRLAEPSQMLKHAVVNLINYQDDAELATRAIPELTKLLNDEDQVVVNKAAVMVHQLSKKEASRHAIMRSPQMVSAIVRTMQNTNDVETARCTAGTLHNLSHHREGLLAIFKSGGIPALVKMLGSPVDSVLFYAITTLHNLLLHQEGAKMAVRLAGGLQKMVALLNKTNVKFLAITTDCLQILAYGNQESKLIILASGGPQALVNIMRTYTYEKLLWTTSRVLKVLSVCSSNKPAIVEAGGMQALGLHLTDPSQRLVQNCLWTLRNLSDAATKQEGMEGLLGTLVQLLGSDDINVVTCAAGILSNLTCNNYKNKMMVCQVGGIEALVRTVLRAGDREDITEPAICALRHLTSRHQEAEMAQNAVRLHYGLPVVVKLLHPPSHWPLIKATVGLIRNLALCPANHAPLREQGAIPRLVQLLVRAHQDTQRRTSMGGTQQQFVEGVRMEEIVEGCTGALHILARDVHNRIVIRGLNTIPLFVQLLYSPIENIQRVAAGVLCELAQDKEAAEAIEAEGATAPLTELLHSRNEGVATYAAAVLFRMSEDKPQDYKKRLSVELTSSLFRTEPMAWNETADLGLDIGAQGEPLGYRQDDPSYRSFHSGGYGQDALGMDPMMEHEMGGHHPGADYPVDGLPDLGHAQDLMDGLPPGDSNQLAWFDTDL

[2] = target: endogenous β-catenin (CTNNB1) (human (endogenous in HEK293T; the cells are told for Figure 9A only)) (UniProt P35222); test: as above

B1: FLAG-p120 wild type (p120-catenin, encoded by CTNND1) (protein, UniProt O60716-1 1-968)
chain: MDDSEVESTASILASVKEQEAQFEKLTRALEEERRHVSAQLERVRVSPQDANPLMANGTLTRRHQNGRFVGDADLERQKFSDLKLNGPQDHSHLLYSTIPRMQEPGQIVETYTEEDPEGAMSVVSVETSDDGTTRRTETTVKKVVKTVTTRTVQPVAMGPDGLPVDASSVSNNYIQTLGRDFRKNGNGGPGPYVGQAGTATLPRNFHYPPDGYSRHYEDGYPGGSDNYGSLSRVTRIEERYRPSMEGYRAPSRQDVYGPQPQVRVGGSSVDLHRFHPEPYGLEDDQRSMGYDDLDYGMMSDYGTARRTGTPSDPRRRLRSYEDMIGEEVPSDQYYWAPLAQHERGSLASLDSLRKGGPPPPNWRQPELPEVIAMLGFRLDAVKSNAAAYLQHLCYRNDKVKTDVRKLKGIPVLVGLLDHPKKEVHLGACGALKNISFGRDQDNKIAIKNCDGVPALVRLLRKARDMDLTEVITGTLWNLSSHDSIKMEIVDHALHALTDEVIIPHSGWEREPNEDCKPRHIEWESVLTNTAGCLRNVSSERSEARRKLRECDGLVDALIFIVQAEIGQKDSDSKLVENCVCLLRNLSYQVHREIPQAERYQEAAPNVANNTGPHAASCFGAKKGKDEWFSRGKKPIEDPANDTVDFPKRTSPARGYELLFQPEVVRIYISLLKESKTPAILEASAGAIQNLCAGRWTYGRYIRSALRQEKALSAIADLLTNEHERVVKAASGALRNLAVDARNKELIGKHAIPNLVKNLPGGQQNSSWNFSEDTVISILNTINEVIAENLEAAKKLRETQGIEKLVLINKSGNRSEKEVRAAALVLQTIWGYKELRKPLEKEGWKKSDFQVNLNNASRSQSSHSYDDSTLPLIDRNQKSDKKPDREEIQMSNMGSNTKSLDNNYSTPNERGDHNRTLDRSGDLGDMEPLKGTTPLMQDEGQESLEEELDVLVLDDEGGQVSYPSMQKI
binding [1]: binds
binding [2]: binds
